{"source": "patent US8569335B2", "about": "“Compounds derived from taurine, process of their preparation and pharmaceutical compositions containing these” (EMS S.A., priority 2008, dated 2013)", "origin": "cited, not measured here", "tested_on": "gastric ulceration", "conditions": "pre clinic tests; cited from earlier work", "note": "At least one compound was matched to its structure with a doubt left."}
{"compound": "COc1ccc2c(c1)c(CC(=O)O)c(C)n2C(=O)c1ccc(Cl)cc1", "note": "[indometacin]", "values": [{"measurement": "change in gastric acidity", "result": 80, "unit": "%"}, {"measurement": "reduction of nitric oxide (measured as nitrite)", "result": 22, "unit": "%"}]}
